# The campaign covered roughly 400,000 compounds. About 13,000 (3.2%) were called active. The inconclusive results got no clear call from the source; some entries with a clear call stand among them for comparison. Calls follow the shape of the dose curve; as a rule, active = well fitted cell-killing curve with a large enough effect; inconclusive = small, poorly fitted or top-dose-only effect, or effect the other way; inactive = flat fitted curve, though single readings scatter. Potencies beside an inconclusive call are fits to weak or partial responses and may not hold up.
# Test: qHTS assay for MDR1-selective chemotherapeutics: Primary screen using the drug-selected MDR subline cells KB-V1; also: nearly all actives have a fitted effect of over 60% in size
# Conditions: KB-V1 MDR cells viability, CellTiter-Glo, 72 h; activity change, negative = cytotoxicity: at 46.1 µM (top of the series)
# Outline: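 KB-V1, DMEM (no phenol red) + 10% FBS; cpd pin-transferred, titration series; 72 h, 37 degrees C; CellTiter-Glo, luminescence. Data normalized, curve-fit.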
# % is scaled to controls: 0 for no effect and ±100 for the full control effect; potency is read from the fitted curve at half-maximal effect.
Compound,Potency,"activity change, negative = cytotoxicity"
Cc1ccc(S(=O)(=O)N(CC(=O)NCCSc2ccccn2)c2ccccc2F)cc1,"inconclusive: 3.66 µM [cytotoxic, full curve]",–
CC(C)N(C(=O)c1sc2cc([N+](=O)[O-])ccc2c1Cl)C(C)C,active: 20.6 µM,–
COc1ccc(S(=O)(=O)N2CCC(C(=O)N3CCCCC3)CC2)cc1,"inconclusive: 9.2 µM [cytotoxic, partial curve]",–
COc1ccc(-c2cc(C(=O)OCC(=O)N3CCCCC3)c3ccccc3n2)cc1OC,active: 3.66 µM,–
O=C(c1ccccc1)C1OC1C(=O)c1ccccc1 (configuration not stated),"inconclusive: 6.51 µM [cytotoxic, full curve, poor fit]",–
C=C(NC(=O)C(=C)NC(=O)c1csc(C2=NC3c4csc(n4)C4NC(=O)c5csc(n5)C(C(C)(O)C(C)O)NC(=O)C5CSC(=N5)/C(=C/C)NC(=O)C(C(C)O)NC(=O)c5csc(n5)C3(CC2)NC(=O)C(C)NC(=O)C(=C)NC(=O)C(=C)NC(=O)C(C(C)C)NC2C=Cc3c(C(C)O)cc(nc3C2O)C(=O)OC4C)n1)C(N)=O (configuration not stated),"inconclusive: 2.31 µM [cytotoxic, full curve, poor fit]",–
Cc1cc2nc(C)n(CCCNC(=O)Nc3ccc(C#N)cc3)c2cc1C,–,inactive: 18.9%
Oc1ccccc1/C=N/NC(=S)NC1CC2CCC1C2 (configuration not stated),"inconclusive: 6.51 µM [cytotoxic, partial curve]",–
Cc1ccc2c(COC(=O)CNS(=O)(=O)c3ccccc3)cc(=O)oc2c1,"inconclusive: 29.1 µM [rising, single point]",–
COc1ccc(C(C)NC(=O)c2ccoc2C)cc1OC (configuration not stated),"inconclusive: 29.1 µM [cytotoxic, single point]",–
CCOc1ccc(NC(=O)CN2CCN(C3CCCCC3)C(=O)C2=O)cc1,–,inactive: -28.4%
CN=c1scc(-c2ccccc2F)n1/N=C(\C)c1cccnc1,–,inactive: 0%
C[C@@H]1COC(=O)[C@@H](NC(=O)OCC2c3ccccc3-c3ccccc32)C/C=C\C[C@@H](CC(=O)N(CCO)Cc2ccccc2)C(=O)N1,"inconclusive: 18.4 µM [rising, single point]",–
Cc1cc(NC(=O)c2ccco2)c(=O)n(Cc2c(F)cccc2Cl)c1,"inconclusive: 29.1 µM [cytotoxic, single point]",–
CC[C@]12c3[nH]c4ccc(OC)cc4c3CCN1C(=O)C(CC(=O)NCCCOC)C[C@@H]2C(=O)N1CCN(C(=O)C2CC2)CC1 (some centres not stated),–,inactive: -13.3%
O=C(CCCN1C(=O)/C(=C/c2ccco2)SC1=S)Nc1ccccc1,"inconclusive: 29.1 µM [cytotoxic, single point]",–
CC(=C/c1ccc(C(C)C)cc1)/C=N/NC(=O)CSc1ccccn1,"inconclusive: 29.1 µM [rising, partial curve, poor fit]",–
O=C(COc1ccc(Br)cc1Cl)NC1CCCCC1,active: 18.4 µM,–
CCOC(=O)C1=C(COC(=O)c2ccc(Cl)nc2)NC(=O)NC1C (configuration not stated),–,inactive: 4.61%
COc1ccc(NS(=O)(=O)c2ccc(OCC(=O)N3CCCC3)cc2)cc1,"inconclusive: 18.4 µM [cytotoxic, single point]",–
COc1cc(/C=N/NC(=O)c2nnn(-c3nonc3N)c2C)ccc1OCc1ccc(Cl)cc1,–,inactive: 13.8%

# Entries of single compounds, quoted from the list. Values in the order: Potency	activity change, negative = cytotoxicity
# Cc1ccc2c(COC(=O)CNS(=O)(=O)c3ccccc3)cc(=O)oc2c1 as listed: inconclusive: 29.1 µM [rising, single point]	–
# Cc1ccc(S(=O)(=O)N(CC(=O)NCCSc2ccccn2)c2ccccc2F)cc1 as listed: inconclusive: 3.66 µM [cytotoxic, full curve]	–

# Additional results follow:

Compound,Potency,"activity change, negative = cytotoxicity"
N#Cc1ccccc1S(=O)(=O)N1CCC(C(=O)NCc2ccccc2CN2CCCC2)CC1,"inconclusive: 10.3 µM [rising, partial curve]",–
O=C(Nc1ccc(Cl)cc1C(=O)NCCN1CCOCC1)c1ccco1,–,inactive: -11.7%
COc1ccc(-c2cc(=O)c3c(OC)c(OC)c(OC)c(OC)c3o2)cc1OC,"inconclusive: 2.06 µM [cytotoxic, full curve]",–
CCOc1ccc(-c2ncncc2-c2ccccc2OC)c(O)c1,"inconclusive: 18.4 µM [cytotoxic, single point]",–
CCCN(CC(=O)Nc1ccccc1OC)C(C)C(=O)NC(C)CCc1ccccc1 (configuration not stated),"inconclusive: 2.91 µM [cytotoxic, full curve]",–
CCOc1ccc(-n2c(SCc3ccc([N+](=O)[O-])cc3)nnc2-c2ccccc2)cc1,"inconclusive: 16.4 µM [cytotoxic, single point]",–
Cc1cc(C(=O)COc2ccc(Br)cc2F)c(C)n1C1CC1,"inconclusive: 25.9 µM [cytotoxic, single point]",–
Cc1cc(C)n2ncc(C(=O)Nc3ccc(Cl)c(Cl)c3)c2n1,"inconclusive: 23.1 µM [cytotoxic, single point]",–
Cc1cc(C)cc(OCC(=O)N/N=C/c2ccc([N+](=O)[O-])o2)c1,"inconclusive: 29.1 µM [cytotoxic, single point]",–
CC1(C)CC(=O)c2c(oc3ccc(NS(=O)(=O)c4ccc(C(=O)O)cc4)cc23)C1,"inconclusive: 29.1 µM [rising, single point]",–
CC(C)Cc1ccc(CN2CCCC(NC(=O)c3cccc(-n4cnnc4)c3)C2)cc1 (configuration not stated),"inconclusive: 11.6 µM [cytotoxic, partial curve]",–
O=C(NC12CC3CC(CC(C3)C1)C2)c1ccc(COc2ccc(Cl)cc2[N+](=O)[O-])o1,"inconclusive: 18.4 µM [cytotoxic, partial curve]",–
Cc1c(/C(O)=C2/C(=O)C(=O)N(CCN(C)C)C2c2ccc(C(C)C)cc2)cnn1-c1ccccc1 (configuration not stated),"inconclusive: 8.2 µM [rising, partial curve, poor fit]",–
O=C(NCc1cccnc1)[C@@H]1CC=C[C@@H]2CCN(Cc3ccccc3)C(=O)[C@@H]21,"inconclusive: 23.1 µM [cytotoxic, single point]",–
COc1ccccc1CCC(=O)N1CCN(S(=O)(=O)c2cccc(F)c2)CC1,"inconclusive: 16.4 µM [cytotoxic, partial curve, poor fit]",–
CCc1nc2c(OCc3ccc(OC)cc3)cccn2c1N(C)C(=O)c1ccncc1,"inconclusive: 23.1 µM [cytotoxic, partial curve, poor fit]",–
CCNC(=O)C/C(C)=N/NC(=O)C(=O)Nc1ccc(CC)cc1,"inconclusive: 29.1 µM [rising, single point]",–
O=C(OCc1ccccc1)N1CCC2CC1c1ccc(-c3cccc(F)c3)cc12 (configuration not stated),"inconclusive: 20.6 µM [cytotoxic, partial curve, poor fit]",–
Cc1cccc(C)c1NC(=O)CCN1C(=O)C2C3CCC(C3)C2C1=O (configuration not stated),–,inactive: 11.2%
CCn1c(COc2ccccc2)nnc1SCC(=O)Nc1ccc(N2CCOCC2)cc1,"inconclusive: 9.2 µM [cytotoxic, partial curve]",–
CCCCCCOC(=O)Nc1ccc(S(=O)(=O)Nc2cccc([N+](=O)[O-])c2)cc1,active: 20.6 µM,–

Compound,Potency,"activity change, negative = cytotoxicity"
O=C1CCc2cc(S(=O)(=O)Nc3ccc(Cl)c(Cl)c3)c(F)cc2N1,"inconclusive: 3.26 µM [rising, full curve, poor fit]",–
CCOC(=O)C(C)Sc1nc(=O)n2cc(C)ccc2n1 (configuration not stated),–,inactive: -6.45%
CCCc1nc(SCC(=O)N2CCC(C)CC2)c2c(=O)n(C)c(=O)n(C)c2n1,"inconclusive: 1.84 µM [cytotoxic, single point]",–
Cc1cccc(NC(=O)CSCC(=O)Nc2cccc(S(=O)(=O)N3CCCCCC3)c2)c1,"inconclusive: 18.4 µM [cytotoxic, single point]",–
CC(=O)NC1CCN(CC(=O)Nc2cccc([N+](=O)[O-])c2)CC1,"inconclusive: 29.1 µM [rising, single point]",–
CC1CN(S(=O)(=O)c2cc(C(=O)N(C)Cc3cccs3)ccc2Cl)CC(C)O1 (configuration not stated),active: 10.3 µM,–
CC(C)(C)n1nnnc1C(c1cccnc1)N(Cc1ccccc1)Cc1ccco1 (configuration not stated),"inconclusive: 18.4 µM [cytotoxic, single point]",–
CC(C)N(C)c1ncnc2c1ncn2[C@H]1CN(Cc2ccc(-c3ccccc3)cc2)C[C@@H](CO)O1,–,inactive: 3.13%
COc1ccccc1-c1c(C)nn2c(N3CCN(Cc4ccccc4)CC3)cc(C)nc12,"inconclusive: 25.9 µM [cytotoxic, single point]",–
CC(C)Nc1nc(NCc2ccccc2)c2sccc2n1,"inconclusive: 5.8 µM [cytotoxic, full curve]",–
COc1ccc(CCn2c(C(C)C)nc3c(c(=O)c4ccccc4n3C)c2=O)cc1,"inconclusive: 16.4 µM [cytotoxic, single point]",–
CC(OC(=O)CCCNC(=O)c1ccc(Cl)cc1)C(=O)N(C)Cc1ccccc1 (configuration not stated),"inconclusive: 9.2 µM [cytotoxic, partial curve]",–
Cc1cccc(-c2ncc(CN3CCN(CCC(C)C)C(CCO)C3)cn2)c1 (configuration not stated),"inconclusive: 16.4 µM [cytotoxic, single point]",–
CC(Oc1ccccc1)C(=O)OCC(=O)N1CC(=O)Nc2ccccc21 (configuration not stated),"inconclusive: 18.4 µM [rising, single point]",–
CCOCCCNC(=O)c1ccc2c(c1)ncn2-c1ccc(CC)cc1,"inconclusive: 32.6 µM [cytotoxic, single point]",–
O=C(N/N=C\c1ccc2c(c1)OCO2)c1ccco1,"inconclusive: 20.6 µM [cytotoxic, partial curve, poor fit]",–
O=[N+]([O-])c1cccc(/C=N/Nc2nc(NCc3ccccc3)nc(N3CCOCC3)n2)c1O,–,inactive: 15.5%
O=C(c1ccc(F)cc1)c1ccc(-c2ccc(F)cc2)nc1,–,inactive: 29.5%
O=C(c1cccs1)N(Cc1cccc(Cl)c1)C1CCS(=O)(=O)C1 (configuration not stated),active: 14.6 µM,–
CC(C)Cn1c(N)c(C(=O)CSc2nc3ncc(Cl)cc3[nH]2)c(=O)n(C)c1=O,"inconclusive: 23.1 µM [cytotoxic, partial curve, poor fit]",–

# From PubChem BioAssay AID1347076 (National Center for Advancing Translational Sciences (NCATS), 2019)
